Measurements from PMC3335008.
Results are given in words; binding and its absence hold for the method and conditions named. In cells and extracts the contact can be indirect. For some assays here: A result given as binding can be weak or reduced; the word gives no strength.

B1: RasGAP binding protein 2 (G3BP2), endogenous (protein, UniProt Q9UN86 1-482)
chain: MVMEKPSPLLVGREFVRQYYTLLNKAPEYLHRFYGRNSSYVHGGVDASGKPQEAVYGQNDIHHKVLSLNFSECHTKIRHVDAHATLSDGVVVQVMGLLSNSGQPERKFMQTFVLAPEGSVPNKFYVHNDMFRYEDEVFGDSEPELDEESEDEVEEEQEERQPSPEPVQENANSGYYEAHPVTNGIEEPLEESSHEPEPEPESETKTEELKPQVEEKNLEELEEKSTTPPPAEPVSLPQEPPKAFSWASVTSKNLPPSGTVSSSGIPPHVKAPVSQPRVEAKPEVQSQPPRVREQRPRERPGFPPRGPRPGRGDMEQNDSDNRRIIRYPDSHQLFVGNLPHDIDENELKEFFMSFGNVVELRINTKGVGGKLPNFGFVVFDDSEPVQRILIAKPIMFRGEVRLNVEEKKTRAARERETRGGGDDRRDIRRNDRGPGGPRGIVGGGMMRDRDGRGPPPRGGMAQKLGSGRGTGQMEGRFTGQRR

Assays:
[1] = target: T1, TIAR, endogenous (human (endogenous in SK-N-BE(2)C)) (UniProt Q01085); test: co-IP; anti-TIAR on sonicated lysates of SK-N-BE(2)C cells transfected with EGFP, EGFP-C1a or EGFP-C1b and kept at 37°C or 44°C for 1 h; Western blot
T1 sequence: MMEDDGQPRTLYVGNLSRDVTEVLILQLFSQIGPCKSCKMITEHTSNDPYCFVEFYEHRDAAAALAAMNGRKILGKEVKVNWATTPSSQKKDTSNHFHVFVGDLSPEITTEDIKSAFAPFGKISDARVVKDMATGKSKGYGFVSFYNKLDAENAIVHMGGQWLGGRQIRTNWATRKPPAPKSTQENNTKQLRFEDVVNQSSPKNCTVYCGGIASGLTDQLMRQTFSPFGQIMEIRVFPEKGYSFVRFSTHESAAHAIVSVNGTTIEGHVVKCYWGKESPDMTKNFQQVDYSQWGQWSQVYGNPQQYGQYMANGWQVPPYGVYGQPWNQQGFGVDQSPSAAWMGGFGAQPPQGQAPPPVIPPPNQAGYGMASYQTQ

[2] = target: EGFP fusion of the C1a domain of PKCα (human); test: co-IP; EGFP fusions of PKCα domains expressed in SK-N-BE(2)C cells, precipitated with anti-GFP-conjugated magnetic beads; polysome lysis buffer (100 mM KCl, 5 mM MgCl2, 10 mM HEPES, 1 mM DTT, 1% IgePAL CA-630, pH 7.0); Western blot for endogenous partners
[3] = target: EGFP fusion of the C1b domain of PKCα (human); test: as above
[4] = target: EGFP fusion of the regulatory domain of PKCα (human); test: as above

binding [1]	binding [2]	binding [3]	binding [4]	Molecule
binds	–	–	–	EGFP fusion of the C1a domain of PKCα (human) (domain or fragment)
no binding	–	–	–	EGFP fusion of the C1b domain of PKCα (human) (domain or fragment)
–	binds	no binding	binds	B1
